From PMC8509297
Results are given in words; binding and its absence hold for the method and conditions named. In cells and extracts the contact can be indirect. Some entries that bind do so weakly or less than the wild type. Where a sequence is shown, tags or fusion partners need not be part of it.

Amino acid sequences for entries named in this document (tags omitted).
UniProt Q9W321: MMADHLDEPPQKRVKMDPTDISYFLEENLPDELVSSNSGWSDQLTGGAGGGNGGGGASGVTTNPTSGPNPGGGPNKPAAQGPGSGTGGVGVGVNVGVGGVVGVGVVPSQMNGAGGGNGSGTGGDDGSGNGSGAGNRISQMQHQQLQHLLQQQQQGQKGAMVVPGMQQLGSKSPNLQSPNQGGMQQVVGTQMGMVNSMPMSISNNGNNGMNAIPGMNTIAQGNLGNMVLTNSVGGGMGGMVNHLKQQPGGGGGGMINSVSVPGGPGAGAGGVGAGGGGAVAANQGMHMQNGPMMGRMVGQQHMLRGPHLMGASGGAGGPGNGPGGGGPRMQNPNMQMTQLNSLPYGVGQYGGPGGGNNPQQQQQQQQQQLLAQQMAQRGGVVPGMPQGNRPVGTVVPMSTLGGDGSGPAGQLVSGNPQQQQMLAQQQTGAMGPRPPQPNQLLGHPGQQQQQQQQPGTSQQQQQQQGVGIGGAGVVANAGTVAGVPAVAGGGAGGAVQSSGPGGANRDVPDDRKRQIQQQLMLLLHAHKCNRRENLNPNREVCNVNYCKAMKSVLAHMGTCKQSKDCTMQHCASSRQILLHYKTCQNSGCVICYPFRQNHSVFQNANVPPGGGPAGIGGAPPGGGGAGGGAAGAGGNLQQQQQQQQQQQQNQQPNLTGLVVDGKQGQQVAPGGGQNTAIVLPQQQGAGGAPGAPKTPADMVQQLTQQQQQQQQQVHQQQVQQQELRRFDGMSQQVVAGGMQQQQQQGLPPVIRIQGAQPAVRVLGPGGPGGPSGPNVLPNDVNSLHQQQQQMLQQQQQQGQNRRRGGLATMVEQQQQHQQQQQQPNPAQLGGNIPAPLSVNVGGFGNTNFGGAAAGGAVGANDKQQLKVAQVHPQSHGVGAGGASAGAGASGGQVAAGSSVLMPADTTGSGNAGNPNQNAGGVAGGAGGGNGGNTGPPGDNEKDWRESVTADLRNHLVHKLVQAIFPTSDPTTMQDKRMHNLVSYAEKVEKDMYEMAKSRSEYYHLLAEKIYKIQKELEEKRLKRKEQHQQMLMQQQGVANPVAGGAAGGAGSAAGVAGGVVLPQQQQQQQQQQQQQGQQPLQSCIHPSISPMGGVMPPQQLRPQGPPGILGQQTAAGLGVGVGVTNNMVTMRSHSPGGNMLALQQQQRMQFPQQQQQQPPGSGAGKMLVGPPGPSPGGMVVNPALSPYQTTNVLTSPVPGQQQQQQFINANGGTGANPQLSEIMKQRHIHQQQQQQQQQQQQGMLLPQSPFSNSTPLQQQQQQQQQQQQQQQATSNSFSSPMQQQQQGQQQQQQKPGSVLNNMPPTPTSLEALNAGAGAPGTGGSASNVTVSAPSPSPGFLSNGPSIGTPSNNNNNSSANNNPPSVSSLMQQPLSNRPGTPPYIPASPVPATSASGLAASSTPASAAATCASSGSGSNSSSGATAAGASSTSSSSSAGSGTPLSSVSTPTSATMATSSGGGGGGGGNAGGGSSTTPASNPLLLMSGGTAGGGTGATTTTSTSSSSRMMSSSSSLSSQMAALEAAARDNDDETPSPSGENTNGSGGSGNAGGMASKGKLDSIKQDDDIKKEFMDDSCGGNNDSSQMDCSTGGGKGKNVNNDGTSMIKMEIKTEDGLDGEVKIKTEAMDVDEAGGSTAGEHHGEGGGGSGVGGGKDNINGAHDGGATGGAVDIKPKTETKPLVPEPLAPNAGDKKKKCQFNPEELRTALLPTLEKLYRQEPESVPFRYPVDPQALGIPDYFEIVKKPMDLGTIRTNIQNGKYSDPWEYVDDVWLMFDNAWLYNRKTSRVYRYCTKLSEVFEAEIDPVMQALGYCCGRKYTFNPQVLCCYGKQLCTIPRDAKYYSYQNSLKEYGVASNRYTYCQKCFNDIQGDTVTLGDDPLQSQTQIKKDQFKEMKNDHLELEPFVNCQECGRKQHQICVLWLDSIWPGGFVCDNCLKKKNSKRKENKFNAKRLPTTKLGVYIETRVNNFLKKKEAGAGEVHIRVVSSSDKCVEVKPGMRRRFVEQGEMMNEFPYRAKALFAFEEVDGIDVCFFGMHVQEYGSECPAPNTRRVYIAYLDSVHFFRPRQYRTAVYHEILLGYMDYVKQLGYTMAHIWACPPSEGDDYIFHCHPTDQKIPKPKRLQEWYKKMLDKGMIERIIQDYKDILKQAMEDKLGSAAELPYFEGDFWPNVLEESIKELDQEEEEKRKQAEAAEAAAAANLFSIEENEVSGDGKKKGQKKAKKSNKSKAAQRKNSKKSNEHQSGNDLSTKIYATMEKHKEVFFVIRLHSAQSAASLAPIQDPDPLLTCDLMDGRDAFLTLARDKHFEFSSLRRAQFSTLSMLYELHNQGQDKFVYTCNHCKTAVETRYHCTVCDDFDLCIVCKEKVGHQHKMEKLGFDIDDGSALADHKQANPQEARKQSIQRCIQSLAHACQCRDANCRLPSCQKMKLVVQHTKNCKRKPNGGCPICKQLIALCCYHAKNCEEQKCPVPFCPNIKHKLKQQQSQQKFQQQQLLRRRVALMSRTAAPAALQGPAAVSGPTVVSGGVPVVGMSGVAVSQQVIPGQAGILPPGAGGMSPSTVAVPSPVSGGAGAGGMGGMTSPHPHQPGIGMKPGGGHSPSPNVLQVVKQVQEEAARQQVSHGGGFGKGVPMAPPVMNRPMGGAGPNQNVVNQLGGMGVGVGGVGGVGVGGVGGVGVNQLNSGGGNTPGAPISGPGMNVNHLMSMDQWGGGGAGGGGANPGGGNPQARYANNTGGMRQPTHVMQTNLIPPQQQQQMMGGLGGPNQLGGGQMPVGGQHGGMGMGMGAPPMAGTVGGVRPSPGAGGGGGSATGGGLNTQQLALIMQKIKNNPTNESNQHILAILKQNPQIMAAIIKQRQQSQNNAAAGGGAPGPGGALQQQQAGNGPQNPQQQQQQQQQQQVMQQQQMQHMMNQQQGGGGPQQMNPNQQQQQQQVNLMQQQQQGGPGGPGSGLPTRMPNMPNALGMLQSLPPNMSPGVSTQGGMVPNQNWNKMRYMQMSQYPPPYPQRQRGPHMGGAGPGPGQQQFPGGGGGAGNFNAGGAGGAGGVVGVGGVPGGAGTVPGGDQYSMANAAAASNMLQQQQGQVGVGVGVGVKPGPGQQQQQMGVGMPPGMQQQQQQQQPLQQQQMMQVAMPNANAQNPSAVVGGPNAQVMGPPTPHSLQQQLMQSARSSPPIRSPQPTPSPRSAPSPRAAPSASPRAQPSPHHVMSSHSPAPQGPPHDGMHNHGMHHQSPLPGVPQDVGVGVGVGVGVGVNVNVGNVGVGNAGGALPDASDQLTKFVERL

B1: FLAG-tagged Ballchen (BALL) (enzyme, UniProt Q7KRY6 1-599)
chain: MPRVAKPKAAAPAKKVVSAKKAKSKLYKMPEKVKEGTVFTDLAKGQWRIGPSIGVGGFGEIYAACKVGEKNYDAVVKCEPHGNGPLFVEMHFYLRNAKLEDIKQFMQKHGLKSLGMPYILANGSVEVNGEKHRFIVMPRYGSDLTKFLEQNGKRLPEGTVYRLAIQMLDVYQYMHSNGYVHADLKAANILLGLEKGGAAQAYLVDFGLASHFVTGDFKPDPKKMHNGTIEYTSRDAHLGVPTRRADLEILGYNLIEWLGAELPWVTQKLLAVPPKVQKAKEAFMDNIGESLKTLFPKGVPPPIGDFMKYVSKLTHNQEPDYDKCRSWFSSALKQLKIPNNGDLDFKMKPQTSSNNNLSPPGTSKAATARKAKKIDSPVLNSSLDEKISASEDDEEEEEKSHRKKTAKKVTPSARNAKVSPLKRVADSSPPSQKRVKTEPKSTPRERATPKASPKPRSTPKASPKPQTPTAARLRTPNAKINFSPSISLRGRPGGKTVINDDLTPQPRSKKTYEFNFELDVSMDANVIVNVKRKKKADQDKATAVDSRTPSSRSALASSSKEEASPVTRVNLRKVNGHGDSSTPGRSPRTPAVTVRKYQG

What was measured:
[1] = molecular target: T1, FLAG-tagged Ballchen (BALL) (Drosophila) (UniProt Q7KRY6); test: co-IP; lysate of S2 cells expressing BALL-FLAG on M2-FLAG agarose beads, 1 h; lysis buffer 140 mM NaCl, 20 mM Tris pH 7.4, 1 mM EDTA, 0.5% NP40, 10% glycerol; blot for endogenous CBP; empty vector cells as control
T1 sequence: B1 chain

[2] = molecular target: CREB binding protein (CBP) (Drosophila (endogenous in S2 cells)) (UniProt Q9W321); test: co-IP; reciprocal: anti-CBP serum on Protein A and G Dyna beads, incubated with S2 cell lysate 1 h at 4°C; blot for BALL-FLAG; mock IP as control

Row | Molecule | binding [1] | binding [2]
1 | CREB binding protein (CBP) (from UniProt Q9W321 1-3276) (enzyme) | binds | –
2 | B1 | – | binds
